Test system: insulin
Assay: Evaluation of aggregation state of heat-denatured insulin using light-absorption/fluorescence characteristics of rose bengal as index
Settings: insulin 17 μM, dye 1 μM, heat-stirred at 55° C.
Protocol: 40 mg of insulin (manufactured by FUJIFILM Wako Pure Chemical Corporation) was added to 2 mL of an aqueous solution of 25 mM of hydrochloric acid and 100 mM of sodium chloride, and dissolved by being left to stand. The obtained insulin solution was heat-stirred at 200 rpm at 55° C. to cause heat denaturation of the insulin, thereby starting the aggregation reaction of the insulin. At 0, 5, 10, 15, 20, 25, 30, 35, 40, 50, 60, 70, 80, and 90 minutes after starting heat-stirring, each of 100 μL of the insulin solution was extracted and ice-cooled. The ice-cooled insulin solution, and rose bengal (manufactured by FUJIFILM Wako Pure Chemical Corporation) were added to distilled water such that final concentrations were each 17 μM and 1 μM. The obtained solution was put in a spectroscopic measurement cell to measure the light-absorption/fluorescence characteristics. The excitation wavelength in fluorescence measurement was 530 nm.

SMILES: O=C(O)c1c(Cl)c(Cl)c(Cl)c(Cl)c1-c1c2cc(I)c(=O)c(I)c-2oc2c(I)c(O)c(I)cc12 [rose bengal]
- heat denaturation time at the minimum point of absorbance at around 560 nm and maximum absorbance (decreasing, thereafter increasing) (25 mM HCl/100 mM NaCl, absorption): around 30 minutes
- heat denaturation time at the minimum point of fluorescence intensity at around 570 nm and maximum fluorescence intensity (decreasing, thereafter increasing) (excitation 530 nm): around 30 minutes
